No constants are given. Whether binding was seen depends on the method and setting. Some entries that bind do so weakly or less than the wild type.
T1: Tn-TFRC
T1 sequence (peptide, T2, GalNAc (T*); biotinylated): GTESPVRE

T2: Tn-EVI2B glycopeptide, immobilized
T2 sequence (peptide, Tn (GalNAc); biotin): STQPTSTV

T3: Tn-PDXL
T3 sequence (peptide, T2, GalNAc (T*); biotinylated): STKAEHLT

T4: Tn-PCDH
T4 sequence (peptide, T2, GalNAc (T*); biotinylated): GTSASLVY

T5: Tn-LAMP
T5 sequence (peptide, T2, GalNAc (T*); biotinylated): TTAPPAPP

T6: Tn-ZIP6 glycopeptide, immobilized
T6 sequence (peptide, Tn (GalNAc); biotin): STPPSVTS

T7: Tn-MUC1 glycopeptide, immobilized (human)
T7 sequence (peptide, Tn (GalNAc); biotin): STAPPAHG


Key:
Tn-TFRC = target: T1, Tn-TFRC; test: condition: last point, right of the 10000 nM tick (about 50000 nM peptide coating); ELISA; x axis = coating concentration of the peptide; 237Ab fixed at 10 µg/ml [left]
[1] = target: T2, Tn-EVI2B glycopeptide, immobilized; test: as above
Tn-PDXL = target: T3, Tn-PDXL; test: as above
Tn-PCDH = target: T4, Tn-PCDH; test: as above
Tn-LAMP = target: T5, Tn-LAMP; test: as above
[2] = target: T6, Tn-ZIP6 glycopeptide, immobilized; test: as above
[3] = target: T7, Tn-MUC1 glycopeptide, immobilized (human); test: as above
[4] = target: Tn-OTS8 peptide tetramer (murine); test: yeast display, peptide tetramers (FIG. 35)
[5] = target: Tn-OTS8 peptide tetramer (murine); test: flow cytometry of yeast-displayed clone with 10 nM OTS8p tetramer [B]
[6] = target: Tn-OTS8 peptide tetramer (murine); test: yeast display, 10 nM peptide tetramer, flow cytometry

binding (Tn-TFRC) | binding [1] | binding (Tn-PDXL) | binding (Tn-PCDH) | binding (Tn-LAMP) | binding [2] | binding [3] | binding [4] | binding [5] | binding [6] | Binder
no binding | no binding | no binding | no binding | no binding | no binding | no binding |  |  |  | 237 monoclonal antibody (antibody, V domains shown) VH: QVQLQQSGGGLVQPGGSMKIFCAASGFTFSDAWMDWVRQSPEKGLEWVAEIRNKANNHETYYAESVKGRFTITRDDSKSRMSLQMNSLRAEDTGIYYCSGGKVRNAYWGQGTTVTVSS VL: DIQLTQSPLSLPVSLGDQASISCRSSQSLVHSNGNTYLHWYLQKPGQSPKLLIYKVSNRFSGVPDRFSGSGSGTDFTLKISSVEAEDLGVYFCSQSTHVPTFGGGTKLEIK
 |  |  |  |  |  |  | binds | binds | binds | yeast-displayed 237 scFv TNGK mutant (scFv, not shown: large carriers; small tags and cut ends) scFv: DIQLTQSPLSLPVSLGDQASISCRSSQSLVHSNGNTYLHWYLQKPGQSPKLLIYKVSNRFSGVPDRFSGSGSGTDFTLKISSVEAEDLGVYFCSQTNGKPTFGGGTKLEIKGGGGSGGGGSGGGGSQVQLQQSGGGLVQPGGSMKIFCAASGFTFSDAWMDWVRQSPEKGLEWVAEIRNKANNHETYYAESVKGRFTITRDDSKSRMSLQMNSLRAEDTGIYYCSGGKVRNAYWGQGTTVTVSS

Source: patent US20220047631A1
